Measured values from the supplement of paper PMC7877785.
± gives the uncertainty stated by the source. Many entries were measured with a wide error.

Assay: self-splicing fitness, log relative to wild type (ln ratio); higher = more splicing; Tetrahymena group I intron in knt gene, E. coli kanamycin selection, DiMSum; sequences stand for … in CUCUCU…GGAGGGAAAAGUUAUCAGGCAUGCACCUGGUAGCUAGUCUUUAAACCAAUAGAUUGCAUCGGUUUAAAAGGCAAGACCGUCAAAUUGCGGGAAAGGGGUCAACAGCCGUUCAGUACCAAGUCUCAGGGGAAACUUUGAGAUGGCCUUGCAAAGGGUAUGGUAAUAAGCUGACGGACAUGGUCCUAACCACGCAGCCAAGUCCUAAGUCAACAGAUCUUCUGUUGAUAUGGAUGCAGUUCACAGACUAAAUGUCGGUCGGGGAAGAUGUAUUCUUCUCAUAAGAUAUAGUCGGACCUCUCCUUAAUGGGAGCUAGCGGAUGAAGUGAUGCAACACUGGAGCCGCUGGGAACUAAUUUGUAUGCGAAAGUAUAUUGAUUAGUUUUGGAGUACUCGUGGUCG
How it was run: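 Fitness was computed with DiMSum as the error-weighted combination of replicate fold changes, kanamycin versus none, each normalised to wild type. The library randomised all eight intron nucleotides of the P1ex region, with the intron placed in the knt kanamycin-resistance gene on pET-22b(+) in E. coli BL21(DE3). Six replicate transformations were grown overnight at 37°C or 30°C on LB agar with or without 25 μg/mL kanamycin, plus 100 μg/mL carbenicillin, 50 μM IPTG and 0.2% rhamnose. Pooled colonies were amplicon-sequenced on an Illumina HiSeq 2500.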

Sequence	self-splicing fitness (ln) (30 °C)	self-splicing fitness (ln) (37 °C)
AAAGAGCAAUAUUACGGGCC	-2.09 ± 0.3	-1.86 ± 0.41
GCGGAGCAAUAUUACGCGGA	–	-2.61 ± 0.54
GGUGAGCAAUAUUACGUACA	–	-0.0341 ± 0.92
CGUGAGCAAUAUUACGCGUA	-1.81 ± 0.6	–
CUCUAGCAAUAUUACGCAUA	-2.83 ± 0.51	-3.87 ± 0.72
CAUAAGCAAUAUUACGGCCC	–	-2.54 ± 0.66
UUUGAGCAAUAUUACGAGGA	-3.62 ± 0.28	-3.55 ± 0.46
AUCGAGCAAUAUUACGCAUA	-1.23 ± 0.53	–
UCGGAGCAAUAUUACGCCGC	–	-2.76 ± 1.1
UCUUAGCAAUAUUACGCUUU	-3.89 ± 0.51	–
CUUAAGCAAUAUUACGUUCC	-5.18 ± 1	-1.82 ± 0.67
UGUGAGCAAUAUUACGUUGC	-3.72 ± 1	–
AGCAAGCAAUAUUACGCUGC	-1.58 ± 0.2	-3.1 ± 0.31
GACUAGCAAUAUUACGCCAA	-2.8 ± 0.52	–
CAUGAGCAAUAUUACGCCCC	-0.86 ± 0.91	–
CCUGAGCAAUAUUACGCCCG	–	-2.79 ± 1.1
CCGAAGCAAUAUUACGCAGU	–	-1.69 ± 0.67
UGGAAGCAAUAUUACGCUCU	-2.95 ± 0.83	–
CCUCAGCAAUAUUACGGACC	-5.51 ± 0.58	–
AUUUAGCAAUAUUACGCUCC	–	0.658 ± 0.52
GUUGAGCAAUAUUACGGAGG	-3.94 ± 0.73	-1.36 ± 0.51
CAGUAGCAAUAUUACGCACA	-1.88 ± 0.14	-0.579 ± 0.18
GGCCAGCAAUAUUACGGACC	-3.07 ± 0.53	-0.7 ± 0.69
UCAGAGCAAUAUUACGCUGC	-3.34 ± 1.1	–

Sequence	self-splicing fitness (ln) (30 °C)	self-splicing fitness (ln) (37 °C)
UGGGAGCAAUAUUACGAAGG	-3.55 ± 0.74	–
GAACAGCAAUAUUACGGGGA	-1.6 ± 0.087	-0.774 ± 0.09
GGUUAGCAAUAUUACGUCAG	–	-2.86 ± 0.53
GGCCAGCAAUAUUACGUCCC	–	-2.39 ± 1.1
GCUAAGCAAUAUUACGAGGU	-2.03 ± 0.19	-1.51 ± 0.15
GUUUAGCAAUAUUACGAACC	-1.55 ± 1.2	–
CUUUAGCAAUAUUACGUGCU	-3.03 ± 0.5	–
GGAGAGCAAUAUUACGAAAG	–	-2.94 ± 0.74
CUCUAGCAAUAUUACGGUUG	-1.83 ± 0.12	-0.869 ± 0.14
UUCGAGCAAUAUUACGAUGC	–	-1.54 ± 0.71
AUGCAGCAAUAUUACGGGAC	-2.82 ± 0.17	-2.74 ± 0.19
AUGGAGCAAUAUUACGGCUC	–	-1.08 ± 0.93
AGUGAGCAAUAUUACGCUAG	-1.67 ± 0.91	-1.77 ± 0.67
CUCGAGCAAUAUUACGCCUA	-3.63 ± 0.6	–
UAUAAGCAAUAUUACGAGGA	–	-3.12 ± 0.53
CCCUAGCAAUAUUACGGAUA	-4.48 ± 0.73	–
GUUGAGCAAUAUUACGCGCU	-3.7 ± 0.78	0.0117 ± 1.2
UCAGAGCAAUAUUACGCUCA	-3.63 ± 1	-1.2 ± 0.51
CCCCAGCAAUAUUACGCUAA	-3.55 ± 0.18	-3.2 ± 0.21
ACGCAGCAAUAUUACGUUAA	-3.4 ± 0.31	-2.88 ± 0.24
GUUUAGCAAUAUUACGAAUC	1.34 ± 1.1	–
UUACAGCAAUAUUACGGCAC	-1.77 ± 0.17	-2.26 ± 0.18
CGAGAGCAAUAUUACGCGAC	-4.99 ± 0.72	-3.5 ± 0.6
UUGUAGCAAUAUUACGAAGC	–	-2.77 ± 1.1

Sequence	self-splicing fitness (ln) (30 °C)	self-splicing fitness (ln) (37 °C)
UCGGAGCAAUAUUACGAUAU	-3.77 ± 1	-1.05 ± 0.75
AAGGAGCAAUAUUACGGUCG	–	-3.3 ± 0.52
GCGGAGCAAUAUUACGCCUG	–	-2.19 ± 0.56
UCAGAGCAAUAUUACGCGUA	-2.57 ± 0.32	-0.569 ± 0.16
AGUGAGCAAUAUUACGCUAA	-4.02 ± 0.61	–
UUCGAGCAAUAUUACGCACU	-3.28 ± 0.53	–
CCUUAGCAAUAUUACGCAAA	-4.38 ± 1	–
GGAGAGCAAUAUUACGAGCU	-1.52 ± 1.2	2.06 ± 0.73
CGAGAGCAAUAUUACGCUAA	–	-1.01 ± 0.59
AGUGAGCAAUAUUACGCUUG	-2.09 ± 1.4	-0.778 ± 0.82
AGUAAGCAAUAUUACGUGAC	-4.51 ± 0.72	–
UGCUAGCAAUAUUACGCCGU	-3.57 ± 0.54	-2.06 ± 0.8
CAAGAGCAAUAUUACGCCUC	–	-3.08 ± 1
CGGAAGCAAUAUUACGAAGC	-2.62 ± 0.76	-1.98 ± 0.65
GAAGAGCAAUAUUACGAAAA	-3.19 ± 1.2	-2.25 ± 0.79
AACGAGCAAUAUUACGUCCC	-4.35 ± 1	-0.853 ± 0.67
UUAGAGCAAUAUUACGACCG	–	-0.812 ± 0.54
UGAGAGCAAUAUUACGUCGC	-2.4 ± 0.61	-1.69 ± 1.2
CCGGAGCAAUAUUACGAGAG	-2.13 ± 0.22	-2.33 ± 0.22
GGAGAGCAAUAUUACGUGAC	–	-1.29 ± 1.2
CGUGAGCAAUAUUACGCAAC	-2.77 ± 0.36	-2.18 ± 0.33
UGAGAGCAAUAUUACGCGCA	-1.38 ± 0.57	-0.326 ± 0.59
UAACAGCAAUAUUACGUACC	-0.513 ± 0.19	-1.7 ± 0.24
CUACAGCAAUAUUACGAACC	-3.4 ± 0.75	-2.02 ± 0.67

Sequence	self-splicing fitness (ln) (30 °C)	self-splicing fitness (ln) (37 °C)
GGGGAGCAAUAUUACGAGGA	–	-3 ± 1.1
CCGGAGCAAUAUUACGAUAU	-4.23 ± 0.6	–
UUGAAGCAAUAUUACGUUGC	–	-3.2 ± 0.52
AGUAAGCAAUAUUACGACCC	-1.01 ± 0.47	-0.157 ± 0.35
UCCGAGCAAUAUUACGAACA	–	-1.74 ± 0.66
UAUAAGCAAUAUUACGAGCC	–	-0.595 ± 1.4
UAUUAGCAAUAUUACGCCCC	-1.91 ± 0.78	-4.43 ± 1
CUUAAGCAAUAUUACGAAUG	-0.541 ± 0.092	-0.0976 ± 0.12
GGGAAGCAAUAUUACGCCGC	-3.18 ± 0.74	-1.69 ± 1.2
UUGGAGCAAUAUUACGUGUA	–	-3.65 ± 0.52
CGCGAGCAAUAUUACGCUAC	-2.96 ± 0.59	–
GCGGAGCAAUAUUACGCGCU	–	-2.4 ± 0.76
UCCUAGCAAUAUUACGAAUG	-2.58 ± 0.8	–
GUCCAGCAAUAUUACGCCCG	-2.09 ± 0.54	-0.749 ± 0.62
UUGGAGCAAUAUUACGUCGC	0.0483 ± 0.84	–
GUAGAGCAAUAUUACGCUAU	-2.44 ± 0.63	-0.405 ± 0.77
UCUGAGCAAUAUUACGAUCC	-3.91 ± 0.72	-1.28 ± 0.57
UCACAGCAAUAUUACGAUUC	-3.61 ± 0.16	-3.05 ± 0.18
UAACAGCAAUAUUACGAGCC	-2.65 ± 0.24	-2.24 ± 0.49
AAGAAGCAAUAUUACGAUGG	-1.93 ± 0.14	-2 ± 0.22
CUAUAGCAAUAUUACGGCGC	–	-2.07 ± 0.65
CUCUAGCAAUAUUACGAACA	-4.69 ± 0.59	–

3 entries from above, set out differently:
CUCUAGCAAUAUUACGCAUA
  self-splicing fitness (ln) (30 °C): -2.83 ± 0.51
  self-splicing fitness (ln) (37 °C): -3.87 ± 0.72
GAACAGCAAUAUUACGGGGA
  self-splicing fitness (ln) (30 °C): -1.6 ± 0.087
  self-splicing fitness (ln) (37 °C): -0.774 ± 0.09
UUGGAGCAAUAUUACGUCGC
  self-splicing fitness (ln) (30 °C): 0.0483 ± 0.84
